In patent publication US20190374627A1, “TARGET PEPTIDES FOR CANCER THERAPY AND DIAGNOSTICS” (priority 2016, published 2019):

Tested on: HCC tumor tissue, adjacent liver tissue, HepG2 cells
Experiment: Identification of MHC class I-bound phosphopeptides by W6/32 immunoprecipitation, IMAC and HPLC-ESI-MS/MS
Parameters: species or system human
Details: for Found on: sample (HCC tumor T, adjacent liver N, HepG2) on which the phosphopeptide was identified; for Found on other cancers: other malignancies on which the MHC-I-pP was also identified; for Copies/cell: presentation of HCC-associated HLA-A*0201-restricted MHC-I-pP per cell

## REYGsTSSI (REYGSTSSI; phosphoserine; (5)...(5) The amino acid at this position is optionally phosphorylated; listed as Homo sapiens)
  Found on: LL3907T

## yLQSRYYRA: HIPK3 phosphopeptide, HLA-A*0201 (YLQSRYYRA; phosphotyrosine; (1)...(1) The amino acid at this position is optionally phosphorylated; listed as Homo sapiens)
  Found on other cancers: Ovarian Ca
  Copies/cell: 0.2 - 1.9 Copies/cell
  Found on: LL3907T; also recorded: LL4857T; also recorded: LL981T

## KLPsPAPARK (KLPSPAPARK; phosphoserine; (4)...(4) The amino acid at this position is optionally phosphorylated; listed as Homo sapiens)
  Found on: LL4857N + T

## RPRAAtVV: PRKAR1A phosphopeptide, HLA-B*0702 (RPRAATVV; phosphothreonine; (6)...(6) The amino acid at this position is optionally phosphorylated; listed as Homo sapiens)
  Found on: LL4857T

## KRYsGNmEY: MHC-I-pP identified for serine/threonine protein kinases LATS1 and LATS2 (KRYSGNMEY; phosphoserine; oxidized methionine; (4)...(4) The amino acid at this position is optionally phosphorylated; listed as Homo sapiens)
  Found on: LL3907T; also recorded: LL370T; also recorded: LL981T; also recorded: LL4857T

## RQDsTPGKVFL: NR2C1 phosphopeptide, HLA-A*0201 (RQDSTPGKVFL; phosphoserine; (4)...(4) The amino acid at this position is optionally phosphorylated; listed as Homo sapiens)
  Found on other cancers: Ovarian Ca, CRC, Melanoma,
  Copies/cell: 1.1 - 8.4 Copies/cell

## SPRRsRSISL (SPRRSRSISL; phosphoserine; (5)...(5) The amino acid at this position is optionally phosphorylated; listed as Homo sapiens)
  Found on: LL4857T

## VLLsPVPEL: ANAPC1 phosphopeptide, HLA-A*0201 (VLLSPVPEL; phosphoserine; (4)...(4) The amino acid at this position is optionally phosphorylated; listed as Homo sapiens)
  Found on: HepG2

## SRFNRRVsV (SRFNRRVSV; phosphoserine; (8)...(8) The amino acid at this position is optionally phosphorylated; listed as Homo sapiens)
  Found on: LL981T

## RQLsSGVSEI: HSPB1 phosphopeptide, HLA-A*0201 (RQLSSGVSEI; phosphoserine; (4)...(4) The amino acid at this position is optionally phosphorylated; listed as Homo sapiens)
  Found on other cancers: Ovarian Ca, Melanoma, Hematological
  Copies/cell: 0.9 Copies/cell

## RLSsPLHFV: FAM134A phosphopeptide, HLA-A*0201 (RLSSPLHFV; phosphoserine; (4)...(4) The amino acid at this position is optionally phosphorylated; listed as Homo sapiens)
  Found on other cancers: CRC, Melanoma, Hematological Ca
  Copies/cell: 0.3 - 1 Copies/cell

## KAFsPVRSV: ID2 phosphopeptide, HLA-A*0201 (KAFSPVRSV; phosphoserine; (4)...(4) The amino acid at this position is optionally phosphorylated; listed as Homo sapiens)
  Found on other cancers: Ovarian Ca, CRC, OEAC
  Copies/cell: 0.1 - 81 Copies/cell

## RRPsLLSEF (RRPSLLSEF; phosphoserine; (4)...(4) The amino acid at this position is optionally phosphorylated; listed as Homo sapiens)
  Found on: LL981N + T

## RPAsAGAmL: MEF2D phosphopeptide, HLA-B*0702 (RPASAGAML; phosphoserine; oxidized methionine; (4)...(4) The amino acid at this position is optionally phosphorylated; listed as Homo sapiens)
  Found on: LL4857T

## SARRtPVSY (SARRTPVSY; phosphothreonine; (5)...(5) The amino acid at this position can be phosphorylated; listed as Homo sapiens)
  Found on: LL981T

## RVAsPTSGV: IRS2 phosphopeptide, HLA-A*0201 (RVASPTSGV; phosphoserine; (4)...(4) The amino acid at this position is optionally phosphorylated; listed as Homo sapiens)
  Found on other cancers: Ovarian Ca,
  Copies/cell: 0.4 - 0.8 Copies/cell

## GLLDsPTSI: ZFP36L1 phosphopeptide, HLA-A*0201 (GLLDSPTSI; phosphoserine; (5)...(5) The amino acid at this position is optionally phosphorylated; listed as Homo sapiens)
  Found on: LL370T

## SImsPEIQL: CIC phosphopeptide, HLA-A*0201 (SIMSPEIQL; phosphoserine; oxidized methionine; (4)...(4) The amino acid at this position is optionally phosphorylated; listed as Homo sapiens)
  Found on other cancers: Ovarian Ca
  Copies/cell: 0.25 Copies/cell

## REAPsPLmI (REAPSPLMI; phosphoserine; oxidized methionine; (5)...(5) The amino acid at this position is optionally phosphorylated; listed as Homo sapiens)
  Found on: LL3907T

## RPAsPGPSL: MICALL2 phosphopeptide, HLA-B*0702 (RPASPGPSL; phosphoserine; (4)...(4) The amino acid at this position is optionally phosphorylated; listed as Homo sapiens)
  Found on: LL4857T

## RTFsPTYGL: SYNM phosphopeptide, HLA-A*0201 (RTFSPTYGL; phosphoserine; (4)...(4) The amino acid at this position is optionally phosphorylated; listed as Homo sapiens)
  Found on other cancers: Ovarian Ca, Melanoma, OEAC
  Copies/cell: 0.3 - 6.8 Copies/cell

## RPDVAKRLsL: BCAR3 phosphopeptide, HLA-B*0702 (RPDVAKRLSL; phosphoserine; (9)...(9) The amino acid at this position is optionally phosphorylated; listed as Homo sapiens)
  Found on: LL4857T

## RTHsLLLLL (RTHSLLLLL; phosphoserine; (4)...(4) The amino acid at this position is optionally phosphorylated; listed as Homo sapiens)
  Found on other cancers: Ovarian Ca, CRC, OEAC, Hematological
  Copies/cell: 1-32 Copies/cell

## FLDtPIAKV: NKD1 phosphopeptide, HLA-A*0201 (FLDTPIAKV; phosphothreonine; (4)...(4) The amino acid at this position is optionally phosphorylated; listed as Homo sapiens)
  Found on other cancers: CRC.
  Copies/cell: 0.1 - 0.15 Copies/cell

## RRSFsLE (RRSFSLE; phosphoserine; (5)...(5) The amino acid at this position is optionally phosphorylated; listed as Homo sapiens)
  Found on: LL370T

## VMIGsPKKV: TNS3 phosphopeptide, HLA-A*0201 (VMIGSPKKV; phosphoserine; (5)...(5) The amino acid at this position is optionally phosphorylated; listed as Homo sapiens)
  Found on other cancers: Ovarian Ca,
  Copies/cell: 2-3 Copies/cell

## ITQGtPLKY: NCOR2 phosphopeptide, HLA-A*01 (ITQGTPLKY; phosphothreonine; (5)...(5) The amino acid at this position is optionally phosphorylated; listed as Homo sapiens)
  Found on: LL981T

## RQAsIELPSMAV: LSP1 phosphopeptide, HLA-A*0201
  Found on other cancers: CRC, Hematological Ca
  Copies/cell: 0.1 Copies/cell

## RLLsPQQPAL: MEF2D phosphopeptide, HLA-B*0702 (RLLSPQQPAL; phosphoserine; (4)...(4) The amino acid at this position is optionally phosphorylated; listed as Homo sapiens)
  Found on: LL370T

## REVsPAPAV (REVSPAPAV; phosphoserine; (4)...(4) The amino acid at this position is optionally phosphorylated; listed as Homo sapiens)
  Found on: LL3907T

## YPLsPTKISQY: HIPK1 phosphopeptide, HLA-A*01 (YPLSPTKISQY; phosphoserine; (4)...(4) The amino acid at this position is optionally phosphorylated; listed as Homo sapiens)
  Found on: HepG2

## RSDsYVEL: TP53BP1 phosphopeptide, HLA-C*05 (RSDSYVEL; phosphoserine; (4)...(4) The amino acid at this position is optionally phosphorylated; listed as Homo sapiens)
  Found on: LL4857T

## RPIsPRIGAL: EPN1 phosphopeptide, HLA-B*0702 (RPISPRIGAL; phosphoserine; (4)...(4) The amino acid at this position is optionally phosphorylated; listed as Homo sapiens)
  Found on: LL4857T

## RPDsPTRPTL: MICAL3 phosphopeptide, HLA-B*0702 (RPDSPTRPTL; phosphoserine; (4)...(4) The amino acid at this position is optionally phosphorylated; listed as Homo sapiens)
  Found on: LL4857T

Entries after “also recorded” stand apart in the source; their conditions may differ.
